Source: the supplement of paper PMC6411743
± gives the standard deviation of the averaged measurements. The entries are a selection whose mix differs from that of the whole data set.

Assays:
Assay in all cases: NP40-soluble protein abundance relative to vehicle (solubility fold change) (ratio); higher = more soluble protein in presence of AMP-PNP
[1] = target: T1, UniProt Q9H6R7 and related entries
T1 sequence (whole entry): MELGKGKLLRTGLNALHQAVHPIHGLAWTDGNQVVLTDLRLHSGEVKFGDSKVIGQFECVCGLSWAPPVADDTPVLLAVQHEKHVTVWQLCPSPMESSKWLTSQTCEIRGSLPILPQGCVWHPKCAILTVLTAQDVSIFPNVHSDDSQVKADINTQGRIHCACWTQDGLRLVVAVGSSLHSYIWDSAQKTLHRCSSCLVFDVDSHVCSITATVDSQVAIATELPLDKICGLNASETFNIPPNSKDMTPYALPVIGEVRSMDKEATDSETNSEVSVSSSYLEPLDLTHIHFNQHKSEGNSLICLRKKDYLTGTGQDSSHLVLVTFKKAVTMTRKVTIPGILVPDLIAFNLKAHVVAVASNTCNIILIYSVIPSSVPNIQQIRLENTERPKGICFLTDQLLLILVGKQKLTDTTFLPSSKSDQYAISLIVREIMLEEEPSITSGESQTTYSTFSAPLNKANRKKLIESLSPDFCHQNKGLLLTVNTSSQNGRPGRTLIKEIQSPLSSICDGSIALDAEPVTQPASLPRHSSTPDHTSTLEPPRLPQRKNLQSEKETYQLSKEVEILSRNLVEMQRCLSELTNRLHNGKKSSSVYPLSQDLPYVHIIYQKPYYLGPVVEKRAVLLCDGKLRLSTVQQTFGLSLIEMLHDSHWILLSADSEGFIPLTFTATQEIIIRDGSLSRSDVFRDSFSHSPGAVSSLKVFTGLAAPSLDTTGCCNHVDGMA
Method in brief: (§1)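 Jurkat crude lysate prepared with a Dounce homogeniser was treated at eight concentrations spanning 0.1 to 10 mM, 10 min at room temperature then 3 min at 37 °C. Solubilisation with 0.8% NP40 and benzonase and ultracentrifugation preceded TMT labelling of the supernatant for LC-MS/MS. Fold change against the detergent-processed vehicle was determined per replicate from vsn-normalised intensities, across three independent experiments.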

[2] = target: T2, UniProt Q9H993
T2 sequence (whole entry): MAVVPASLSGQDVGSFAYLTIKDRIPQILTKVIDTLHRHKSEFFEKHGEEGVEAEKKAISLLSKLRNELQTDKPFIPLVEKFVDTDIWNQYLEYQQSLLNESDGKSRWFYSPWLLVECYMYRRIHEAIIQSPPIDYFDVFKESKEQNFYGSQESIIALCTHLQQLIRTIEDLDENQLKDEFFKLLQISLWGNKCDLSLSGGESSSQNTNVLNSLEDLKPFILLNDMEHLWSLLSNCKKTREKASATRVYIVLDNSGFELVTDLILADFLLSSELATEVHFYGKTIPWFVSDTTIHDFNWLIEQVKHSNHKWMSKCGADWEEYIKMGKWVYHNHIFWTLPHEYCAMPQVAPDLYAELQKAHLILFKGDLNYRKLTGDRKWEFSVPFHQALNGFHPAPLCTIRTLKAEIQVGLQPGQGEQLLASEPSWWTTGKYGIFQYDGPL
Method in brief: as §1

[3] = target: T3, UniProt Q9H9J4 and related entries
T3 sequence (whole entry): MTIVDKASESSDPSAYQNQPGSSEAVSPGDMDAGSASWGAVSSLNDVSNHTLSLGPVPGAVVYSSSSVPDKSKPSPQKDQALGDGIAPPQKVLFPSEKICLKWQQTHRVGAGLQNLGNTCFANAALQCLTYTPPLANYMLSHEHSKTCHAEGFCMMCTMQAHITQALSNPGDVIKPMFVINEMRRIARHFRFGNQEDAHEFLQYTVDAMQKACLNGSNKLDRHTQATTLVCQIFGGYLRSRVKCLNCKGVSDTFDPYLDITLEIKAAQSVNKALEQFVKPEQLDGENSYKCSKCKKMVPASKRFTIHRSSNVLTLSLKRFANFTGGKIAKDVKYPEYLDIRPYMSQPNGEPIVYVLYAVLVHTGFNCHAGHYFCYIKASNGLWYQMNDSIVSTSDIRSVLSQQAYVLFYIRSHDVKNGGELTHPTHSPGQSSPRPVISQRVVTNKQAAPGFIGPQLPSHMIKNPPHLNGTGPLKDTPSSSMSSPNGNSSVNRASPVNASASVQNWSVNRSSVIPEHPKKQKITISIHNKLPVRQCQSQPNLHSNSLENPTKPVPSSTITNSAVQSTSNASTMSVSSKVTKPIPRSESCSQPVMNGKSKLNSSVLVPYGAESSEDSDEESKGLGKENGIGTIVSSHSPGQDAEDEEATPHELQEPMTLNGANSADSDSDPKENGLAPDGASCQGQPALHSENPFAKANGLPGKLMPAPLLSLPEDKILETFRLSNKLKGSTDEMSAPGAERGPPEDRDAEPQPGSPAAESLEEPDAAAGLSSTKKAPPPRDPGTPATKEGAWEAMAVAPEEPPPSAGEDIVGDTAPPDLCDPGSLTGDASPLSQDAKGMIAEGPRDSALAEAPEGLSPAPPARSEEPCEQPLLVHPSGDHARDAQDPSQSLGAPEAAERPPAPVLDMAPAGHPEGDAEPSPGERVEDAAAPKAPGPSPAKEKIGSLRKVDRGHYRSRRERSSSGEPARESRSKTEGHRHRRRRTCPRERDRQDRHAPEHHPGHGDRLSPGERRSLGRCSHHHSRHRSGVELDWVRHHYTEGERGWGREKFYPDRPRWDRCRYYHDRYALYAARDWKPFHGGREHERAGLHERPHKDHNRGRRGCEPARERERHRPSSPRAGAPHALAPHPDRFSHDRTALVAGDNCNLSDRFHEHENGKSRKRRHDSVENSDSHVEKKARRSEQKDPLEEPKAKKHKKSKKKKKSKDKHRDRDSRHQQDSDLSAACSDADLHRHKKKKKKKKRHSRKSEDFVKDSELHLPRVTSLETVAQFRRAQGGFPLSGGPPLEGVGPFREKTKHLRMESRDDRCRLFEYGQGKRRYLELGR
Method in brief: as §1

[4] = target: T4, UniProt Q9NPI1 and related entries
T4 sequence (whole entry): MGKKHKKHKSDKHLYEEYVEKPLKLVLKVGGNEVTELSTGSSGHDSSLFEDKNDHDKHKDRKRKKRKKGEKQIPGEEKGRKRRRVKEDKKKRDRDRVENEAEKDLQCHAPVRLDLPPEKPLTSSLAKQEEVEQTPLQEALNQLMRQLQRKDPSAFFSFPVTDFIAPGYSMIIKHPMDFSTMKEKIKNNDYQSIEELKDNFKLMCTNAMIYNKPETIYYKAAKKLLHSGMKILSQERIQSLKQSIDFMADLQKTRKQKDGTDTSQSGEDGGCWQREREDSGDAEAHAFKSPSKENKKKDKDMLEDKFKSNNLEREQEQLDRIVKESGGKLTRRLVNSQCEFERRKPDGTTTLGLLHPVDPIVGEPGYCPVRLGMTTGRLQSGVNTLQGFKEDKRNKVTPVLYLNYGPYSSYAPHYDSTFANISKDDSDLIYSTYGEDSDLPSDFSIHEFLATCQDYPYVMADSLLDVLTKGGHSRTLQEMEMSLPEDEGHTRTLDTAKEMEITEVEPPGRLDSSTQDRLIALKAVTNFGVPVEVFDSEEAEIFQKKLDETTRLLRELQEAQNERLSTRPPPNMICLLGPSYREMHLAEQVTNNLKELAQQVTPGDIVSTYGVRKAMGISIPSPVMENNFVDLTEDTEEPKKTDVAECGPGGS
Method in brief: as §1

[5] = target: T5, UniProt Q9NPJ3
T5 sequence (whole entry): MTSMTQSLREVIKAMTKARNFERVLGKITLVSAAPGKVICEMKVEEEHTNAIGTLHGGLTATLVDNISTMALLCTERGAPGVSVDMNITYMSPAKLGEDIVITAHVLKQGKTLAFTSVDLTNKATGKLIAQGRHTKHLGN
Method in brief: as §1

In the case of `Nc1ncnc2c1ncn2[C@@H]1O[C@H](COP(=O)(O)OP(=O)(O)NP(=O)(O)O)[C@@H](O)[C@H]1O` [adenylyl imidodiphosphate], the NP40-soluble protein abundance ([1]; concentration: 1mM) is reported as 0.944 ± 0.05, the NP40-soluble protein abundance ([1]; concentration: 2mM) is reported as 0.932 ± 0.028 and the NP40-soluble protein abundance ([1]; concentration: 4mM) is reported as 0.918 ± 0.032. The NP40-soluble protein abundance ([1]; concentration: 6mM) was 0.888 ± 0.085, the NP40-soluble protein abundance ([1]; concentration: 8mM) was 0.874 ± 0.099 and the NP40-soluble protein abundance ([1]; concentration: 10mM) was 0.852 ± 0.085. For the same compound, the NP40-soluble protein abundance ([2]; concentration: 1mM) was 1.01 ± 0.055, the NP40-soluble protein abundance ([2]; concentration: 2mM) was 0.967 ± 0.012 and the NP40-soluble protein abundance ([2]; concentration: 4mM) was 0.982 ± 0.049. It also gave an NP40-soluble protein abundance ([2]; concentration: 6mM) of 1.021 ± 0.0015, an NP40-soluble protein abundance ([2]; concentration: 8mM) of 1.04 ± 0.033 and an NP40-soluble protein abundance ([2]; concentration: 10mM) of 1.02 ± 0.027. The NP40-soluble protein abundance ([3]; concentration: 1mM) was 1.02 ± 0.026, the NP40-soluble protein abundance ([3]; concentration: 2mM) was 1.03 ± 0.035 and the NP40-soluble protein abundance ([3]; concentration: 4mM) was 1.01 ± 0.035. For the same compound, the NP40-soluble protein abundance ([3]; concentration: 6mM) was 0.993 ± 0.011, the NP40-soluble protein abundance ([3]; concentration: 8mM) was 1.03 ± 0.03 and the NP40-soluble protein abundance ([3]; concentration: 10mM) was 1.04 ± 0.04. It also gave an NP40-soluble protein abundance ([4]; concentration: 1mM) of 1.07 ± 0.036, an NP40-soluble protein abundance ([4]; concentration: 2mM) of 1.13 ± 0.049 and an NP40-soluble protein abundance ([4]; concentration: 4mM) of 1.11 ± 0.06. For the same compound, the NP40-soluble protein abundance ([4]; concentration: 6mM) was 1.16 ± 0.094, the NP40-soluble protein abundance ([4]; concentration: 8mM) was 1.15 ± 0.037 and the NP40-soluble protein abundance ([4]; concentration: 10mM) was 1.22 ± 0.12. The NP40-soluble protein abundance ([5]; concentration: 1mM) was 0.947 ± 0.014, the NP40-soluble protein abundance ([5]; concentration: 2mM) was 0.9081 ± 0.0059 and the NP40-soluble protein abundance ([5]; concentration: 4mM) was 0.9 ± 0.028. The NP40-soluble protein abundance ([5]; concentration: 6mM) was 0.974 ± 0.062, the NP40-soluble protein abundance ([5]; concentration: 8mM) was 0.976 ± 0.032 and the NP40-soluble protein abundance ([5]; concentration: 10mM) was 0.948 ± 0.076.
